Data on six sequences can be found in paper PMC8452638.

By UniProt entry, the sequences of proteins in these tests, tags left out.
UniProt Q06609, whole entry: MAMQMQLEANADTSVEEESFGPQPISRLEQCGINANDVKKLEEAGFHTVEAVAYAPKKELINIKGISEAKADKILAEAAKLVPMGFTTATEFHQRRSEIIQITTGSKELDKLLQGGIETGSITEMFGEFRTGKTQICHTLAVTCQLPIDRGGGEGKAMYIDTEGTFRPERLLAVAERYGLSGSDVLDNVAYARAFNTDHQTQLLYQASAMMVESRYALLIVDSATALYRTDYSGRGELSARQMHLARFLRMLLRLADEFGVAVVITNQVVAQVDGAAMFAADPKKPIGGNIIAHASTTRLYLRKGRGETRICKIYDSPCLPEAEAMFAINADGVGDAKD

For at least one entry, the source does not settle the construct or the ends of the probe. For part of these data: Negatives hold for the conditions tested. For part of these data: Tags and fusion partners may be left off the protein sequences shown. For part of these data: A weaker result is weaker than the reference pair of the same experiment. For part of these data: At least one verdict rests on a figure or table, not on a statement of the authors.

The subject of data set [1] is RAD-51. Briefly: EMSA (glutaraldehyde crosslinked), competition. To be noted: ADP, SF buffer: 50 mM Tris-HCl pH 7.5, 5 mM MgCl2, 50 mM NaCl, 2 mM ATP or ADP or no nucleotide, EMSA 25 C with 0.125% glutaraldehyde, recombinant protein, protein details: His-SUMO removed by Ulp1, label: 5'-FITC, single-stranded DNA. (A gel shift assay detects complexes by their altered migration in electrophoresis.)

For data set [2], the system named is RAD-51. The data set can be described thus: EMSA (glutaraldehyde crosslinked). To be noted: no nucleotide, SF buffer: 50 mM Tris-HCl pH 7.5, 5 mM MgCl2, 50 mM NaCl, 2 mM ATP or ADP or no nucleotide, EMSA 25 C with 0.125% glutaraldehyde, recombinant protein, protein details: His-SUMO removed by Ulp1, label: 5'-FITC, single-stranded DNA.
Data set [3] relates to RAD-51. The data set can be described thus: stopped-flow Cy3 fluorescence, competitor challenge. The settings on record: ADP, with RFS-1/RIP-1, filament destabilized, SF buffer: 50 mM Tris-HCl pH 7.5, 5 mM MgCl2, 50 mM NaCl, 2 mM ATP or ADP or no nucleotide, EMSA 25 C with 0.125% glutaraldehyde, recombinant protein, protein details: His-SUMO removed by Ulp1, single-stranded DNA.

For data set [4], the system named is RAD-51. The data set can be described thus: stopped-flow Cy3 fluorescence. To be noted: SF buffer: 50 mM Tris-HCl pH 7.5, 5 mM MgCl2, 50 mM NaCl, recombinant protein, protein details: His-SUMO removed by Ulp1, single-stranded DNA.
The next data set relates to RAD-51 D238A. Briefly: stopped-flow Cy3 fluorescence. To be noted: SF buffer: 50 mM Tris-HCl pH 7.5, 5 mM MgCl2, 50 mM NaCl, 2 mM ATP or ADP or no nucleotide, recombinant protein, label: Cy3, single-stranded DNA.
Another data set has as its target T1, scRad51 (UniProt P25454).
T1 sequence (looked up, limits assumed): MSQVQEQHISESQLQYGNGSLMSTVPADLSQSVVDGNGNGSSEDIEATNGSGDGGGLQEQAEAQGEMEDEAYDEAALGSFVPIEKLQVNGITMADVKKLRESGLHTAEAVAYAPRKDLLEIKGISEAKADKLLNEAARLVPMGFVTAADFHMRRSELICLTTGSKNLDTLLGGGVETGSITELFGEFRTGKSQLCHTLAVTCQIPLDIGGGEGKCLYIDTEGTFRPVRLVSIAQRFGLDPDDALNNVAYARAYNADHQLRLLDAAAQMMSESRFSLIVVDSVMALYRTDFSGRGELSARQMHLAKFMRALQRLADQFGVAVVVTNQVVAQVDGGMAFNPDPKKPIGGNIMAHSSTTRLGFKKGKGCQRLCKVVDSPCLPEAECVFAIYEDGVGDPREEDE
Briefly: stopped-flow Cy3 fluorescence. The settings on record: SF buffer: 50 mM Tris-HCl pH 7.5, 5 mM MgCl2, 50 mM NaCl, 2 mM ATP or ADP or no nucleotide, recombinant protein, label: Cy3, single-stranded DNA.

Another data set deals with hsRAD51 (human) (UniProt Q06609). The data set can be described thus: stopped-flow Cy3 fluorescence. The settings on record: SF buffer: 50 mM Tris-HCl pH 7.5, 5 mM MgCl2, 50 mM NaCl, 2 mM ATP or ADP or no nucleotide, label: Cy3, single-stranded DNA.
Data set [5] deals with RAD-51. The data set can be described thus: BLI. To be noted: SF buffer: 50 mM Tris-HCl pH 7.5, 5 mM MgCl2, 50 mM NaCl, 2 mM ATP or ADP or no nucleotide, BLI room temperature with 0.05% Tween 20, recombinant protein, protein details: His-SUMO removed by Ulp1, label: biotin (3' in text, table prints 5'-Biotin), single-stranded DNA.

For the sequence “GACGCTGCCGAATTCTACCAGTGCCTTGCTAGGACATCTTTGCCCACCTGCAGGTTCACCC [5'-FITC-61mer]”, the binding result in the data set with RAD-51 [1] (RAD-51 alone) is reported as “binds”; in the data set with RAD-51 [1] (with 0.5 uM RFS-1/RIP-1, more prone to dissociation by unlabelled 61mer) it was “binds more weakly”; in the data set on RAD-51 [2] (RAD-51 alone, complexes in wells) it was “binds”; in the data set on RAD-51 [2] (with RFS-1 E138A/RIP-1, less free DNA than with wild type), “binds more weakly”; with RAD-51 [2] (with RFS-1 K56A/RIP-1, less free DNA than with wild type), “binds more weakly”; with RAD-51 [2] (with wild-type RFS-1/RIP-1, more free ssDNA) it was “binds more weakly”.

Regarding “TTTTTTTTTTTTTTTTTTTTTTTTTTTTTTTTTTTTTTTTTTT [3'-Cy3-43mer]”, the binding result in the data set with RAD-51 [3] (label: 3'-Cy3) is recorded as “binds more weakly”; with RAD-51 [4] (ADP, 250 nM RAD-51, stimulated by RFS-1/RIP-1, 2 mM ATP or ADP or no nucleotide, label: 3'-Cy3) it was “binds”; in the data set on RAD-51 [4] (ATP, 250 nM RAD-51, stimulated by RFS-1/RIP-1, 2 mM ATP or ADP or no nucleotide, label: 3'-Cy3) it was “binds”.

For “TTTTTTTTTTTTTTTTTTTTTTTTTTTTTTTTTTTTTTTTTTT [5'-Cy3-43mer]”, the binding result was “binds more weakly” in the data set on RAD-51 [3] (label: 5'-Cy3); “binds” with RAD-51 [4] (ADP, 250 nM RAD-51, stimulated by RFS-1/RIP-1, 2 mM ATP or ADP or no nucleotide, label: 5'-Cy3); “binds” with RAD-51 [4] (ATP, 250 nM RAD-51, stimulated by RFS-1/RIP-1, 2 mM ATP or ADP or no nucleotide, label: 5'-Cy3).

For “TTTTTTTTTTTTTTTTTTTTTTTTTTTTTTTTTTTTTTTTTTT [(Int21)-Cy3-43mer]”, the binding result is on record as “binds” in the data set on RAD-51 [4] (ADP, 250 nM RAD-51, stimulated by RFS-1/RIP-1, Cy3 in backbone after nt 21, 2 mM ATP or ADP or no nucleotide, label: internal Cy3) and “binds” in the data set with RAD-51 [4] (ATP, 250 nM RAD-51, stimulated by RFS-1/RIP-1, Cy3 in backbone after nt 21, 2 mM ATP or ADP or no nucleotide, label: internal Cy3).

“TTTTTTTTTTTTTTTTTTTTTTTTTTTTTTTTTTTTTTTTTTT [Cy3-43mer (label position not stated)]”: the binding result with RAD-51 D238A (ATP, stimulation by RFS-1/RIP-1 impaired) is “binds”; in the data set with RAD-51 D238A (no nucleotide, RFS-1/RIP-1 block of binding profoundly defective), “binds”; in the data set with scRad51 (ADP, 250 nM), “no binding”; with scRad51 (ATP, not stimulated by RFS-1/RIP-1) it was “binds”; with scRad51 (no nucleotide, 1000 nM), “no binding”; in the data set with hsRAD51 (human) (ATP, not stimulated by RFS-1/RIP-1, recombinant protein), “binds”. Moreover, the binding result in the data set with hsRAD51 (human) (no nucleotide, 1 uM, not changed by RFS-1/RIP-1, recombinant …) is “binds”; in the data set with RAD-51 [4] (no nucleotide, 1 uM RAD-51 alone, complex unstable on dilution, 2 mM ATP or ADP or no nucleotide, label: Cy3), “binds”; in the data set on RAD-51 [4] (no nucleotide, with RFS-1 E138A/RIP-1, inhibition less than wild type, 2 mM ATP or ADP or no nucleotide, label: Cy3), “binds more weakly”; in the data set on RAD-51 [4] (no nucleotide, with RFS-1 K56A/RIP-1, inhibition less than wild type, 2 mM ATP or ADP or no …, label: Cy3), “binds more weakly”.

Consider “TTTTTTTTTTTTTTTTTTTTTTTTTTTTTTTTTTTTTTTTTTT [biotinylated dT43]”, for which the binding result with RAD-51 [5] (ADP, sensor fully coated at 1 uM RAD-51) is recorded as “binds”; in the data set on RAD-51 [5] (ADP, with RFS-1/RIP-1, dissociation stimulated), “binds more weakly”; in the data set on RAD-51 [5] (ATP, sensor fully coated at 1 uM RAD-51) it was “binds”.
